According to the supplement of paper PMC4604168 (melanoma cell lines):
The list shows a part of the results. Repeats are few or missing, and single values can be far off.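 Cells were imaged in 1,536-well plates, and nuclei stained with an antibody against cleaved PARP were counted against all DNA-stained nuclei to give the apoptosis fraction. Screening doses were chosen to leave most cells alive, and resting and induced cleaved-PARP levels differ strongly between cell lines.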

Key:
Experiment in all cases: cleaved PARP positive nuclei fraction relative to DMSO control; melanoma cells; higher = more apoptosis
Conditions in all cases: library dose: low library concentration; 72 h
501Mel = system: 501Mel
A101D = system: A101D
A2058 = system: A2058
A375 = system: A375
C32 = system: C32
CBRC008 = system: CBRC008 (line from a melanoma biopsy)
CBRC013 = system: CBRC013 (line from a melanoma biopsy)
CBRC014 = system: CBRC014 (line from a melanoma biopsy)
CBRC016 = system: CBRC016 (line from a melanoma biopsy)
CBRC017 = system: CBRC017 (line from a melanoma biopsy)
COLO792 = system: COLO792
COLO800 = system: COLO800
COLO829 = system: COLO829
G361 = system: G361
IPC-298 = system: IPC-298
IST-MEL1 = system: IST-MEL1
LB2518-MEL = system: LB2518-MEL
LOXIMVI = system: LOXIMVI
MEL-HO = system: MEL-HO

Row | SMILES | cleaved PARP positive nuclei fraction (501Mel) | cleaved PARP positive nuclei fraction (A101D) | cleaved PARP positive nuclei fraction (A2058) | cleaved PARP positive nuclei fraction (A375) | cleaved PARP positive nuclei fraction (C32) | cleaved PARP positive nuclei fraction (CBRC008) | cleaved PARP positive nuclei fraction (CBRC013) | cleaved PARP positive nuclei fraction (CBRC014) | cleaved PARP positive nuclei fraction (CBRC016) | cleaved PARP positive nuclei fraction (CBRC017) | cleaved PARP positive nuclei fraction (COLO792) | cleaved PARP positive nuclei fraction (COLO800) | cleaved PARP positive nuclei fraction (COLO829) | cleaved PARP positive nuclei fraction (G361) | cleaved PARP positive nuclei fraction (IPC-298) | cleaved PARP positive nuclei fraction (IST-MEL1) | cleaved PARP positive nuclei fraction (LB2518-MEL) | cleaved PARP positive nuclei fraction (LOXIMVI) | cleaved PARP positive nuclei fraction (MEL-HO)
1 | CS(=O)(=O)CCNCc1ccc(-c2ccc3ncnc(Nc4ccc(OCc5cccc(F)c5)c(Cl)c4)c3c2)o1 [lapatinib] + Cc1ccc(NC(=O)c2cccc(N(C)C)c2)cc1NC(=O)c1ccc(O)cc1 [ZM336372] (first compound 0.8 µM, partner dose 2 µM) | 189% | 186% | 88% | 149% | 178% | 38.4% | 96.5% | 112% | 174% | 86.2% | 126% | 218% | 169% | 130% | 112% | 24.1% | 53.6% | 59% | 164%
2 | Nc1nc(F)nc2c1ncn2[C@@H]1O[C@H](CO)[C@@H](O)[C@@H]1O [fludarabine] + Cn1cncc1[C@@](N)(c1ccc(Cl)cc1)c1ccc2c(c1)c(-c1cccc(Cl)c1)cc(=O)n2C [tipifarnib] (first compound 0.2 µM, partner dose 0.01 µM) | 1480% | 96.6% | 139% | 12800% | 145% | 71.8% | 868% | 111% | 218% | 99% | 32.2% | 152% | 171% | 140% | 109% | 47.4% | 120% | 122% | 102%
3 | Nc1nc(F)nc2c1ncn2[C@@H]1O[C@H](CO)[C@@H](O)[C@@H]1O [fludarabine] + CN(NC(=O)CC(=O)NN(C)C(=S)c1ccccc1)C(=S)c1ccccc1 [STA4783] (first compound 0.2 µM, partner dose 0.006 µM) | 2260% | 44.9% | 197% | 17700% | 109% | 1520% | 429% | 657% | 170% | 195% | 267% | 122% | 147% | 67.7% | 102% | 131% | 136% | 86.1% | 144%
4 | CC(C)C[C@H](NC(=O)[C@H](Cc1ccccc1)NC(=O)c1cnccn1)B(O)O [Bortezomib] + COc1cc(Nc2ncc(F)c(Nc3ccc4c(n3)NC(=O)C(C)(C)O4)n2)cc(OC)c1OC [Tamatinib] (first compound 0.001 µM, partner dose 0.4 µM) | 826% | 247% | 74.6% | 341% | 86.1% | 1340% | 85.8% | 434% | 388% | 253% | 169% | 87.7% | 91.7% | 2160% | 83.1% | 343% | 383% | 112% | 70.8%
5 | CNC(=O)c1cc(Oc2ccc(NC(=O)Nc3ccc(Cl)c(C(F)(F)F)c3)cc2)ccn1 [sorafenib] + COc1cc2c(Oc3ccc4[nH]c(C)cc4c3F)ncnc2cc1OCCCN1CCCC1 [cediranib] (first compound 0.4 µM, partner dose 0.4 µM) | 179% | 60.5% | 108% | 11% | 206% | 104% | 110% | 90.1% | 103% | 104% | 25.1% | 96% | 93.8% | 116% | 99.1% | 248% | 85.9% | 44.8% | 117%
6 | O=C(O)c1ccc2c(c1)nc(Nc1cccc(Cl)c1)c1ccncc12 + OCCn1cc(-c2cnc3nnn(Cc4ccc5ncccc5c4)c3n2)cn1 [PF04217903] (first compound 0.4 µM, partner dose 1 µM) | 82.8% | 92.1% | 101% | 258% | 92% | 203% | 119% | 106% | 117% | 122% | 101% | 74.8% | 147% | 253% | 198% | 218% | 166% | 109% | 148%
7 | C[C@@H](Oc1cc(-c2cnn(C3CCNCC3)c2)cnc1N)c1c(Cl)ccc(F)c1Cl [Crizotinib] + C[C@@H]1CCN(C(=O)CC#N)C[C@@H]1N(C)c1ncnc2[nH]ccc12 [CP690550] (first compound 0.2 µM, partner dose 1 µM) | 52.8% | 79.9% | 52.3% | 244% | 52.5% | 42.6% | 112% | 69.3% | 26.8% | 91% | 69.5% | 100% | 52.2% | 170% | 172% | 96.5% | 94.6% | 24.1% | 249%
8 | CS(=O)(=O)CCNCc1ccc(-c2ccc3ncnc(Nc4ccc(OCc5cccc(F)c5)c(Cl)c4)c3c2)o1 [lapatinib] + CC(C)(C)c1cnc(CSc2cnc(NC(=O)C3CCNCC3)s2)o1 [SNS-032] (first compound 0.8 µM, partner dose 0.01 µM) | 167% | 47.8% | 36.5% | 54.2% | 68.5% | 449% | 130% | 91.9% | 20.4% | 135% | 189% | 73.8% | 92.3% | 103% | 43.2% | 96.9% | 43.7% | 108% | 136%
9 | CC(C)C[C@H](NC(=O)[C@H](Cc1ccccc1)NC(=O)c1cnccn1)B(O)O [Bortezomib] + C[C@@H]1CCN(C(=O)CC#N)C[C@@H]1N(C)c1ncnc2[nH]ccc12 [CP690550] (first compound 0.001 µM, partner dose 1 µM) | 439% | 251% | 192% | 90.3% | 89.4% | 598% | 61.7% | 214% | 394% | 111% | 110% | 165% | 234% | 1110% | 110% | 57.5% | 180% | 44.1% | 239%
10 | C[C@@H](Oc1cc(-c2cnn(C3CCNCC3)c2)cnc1N)c1c(Cl)ccc(F)c1Cl [Crizotinib] + O=C(CCCCCCC(=O)Nc1ccccc1)NO [vorinostat] (first compound 0.2 µM, partner dose 0.08 µM) | 168% | 85.2% | 56.4% | 63.6% | 31% | 101% | 104% | 75% | 145% | 69.9% | 119% | 44% | 276% | 108% | 22.8% | 48.2% | 98.2% | 21% | 70.8%
11 | O=C(O)[C@@H]1[O][Sb](=[O])([O][Sb]2(=[O])[O][C@H]([C@H](O)CO)[C@H](O)[C@H](C(=O)O)[O]2)[O][C@H]([C@H](O)CO)[C@@H]1O (some centres undefined) [stibogluconate] + COc1cc(Nc2ncc(F)c(Nc3ccc4c(n3)NC(=O)C(C)(C)O4)n2)cc(OC)c1OC [Tamatinib] (first compound 2 µM, partner dose 0.4 µM) | 127% | 237% | 153% | 145% | 154% | 150% | 157% | 71.9% | 47.9% | 98.8% | 100% | 80% | 160% | 86.9% | 108% | 58.7% | 132% | 197% | 274%
12 | CNC(=O)c1cc(Oc2ccc(NC(=O)Nc3ccc(Cl)c(C(F)(F)F)c3)cc2)ccn1 [sorafenib] + CC(C)(C)c1cnc(CSc2cnc(NC(=O)C3CCNCC3)s2)o1 [SNS-032] (first compound 0.4 µM, partner dose 0.01 µM) | 90.4% | 80.9% | 115% | 35.3% | 239% | 149% | 132% | 212% | 58.8% | 98% | 40.2% | 18.5% | 37% | 63.6% | 173% | 212% | 43.5% | 62.4% | 35.5%
13 | CNC(=O)c1cc(Oc2ccc(NC(=O)Nc3ccc(Cl)c(C(F)(F)F)c3)cc2)ccn1 [sorafenib] + Cc1cc(N2CCOCC2)cc2[nH]c(-c3c(NC[C@@H](O)c4cccc(Cl)c4)cc[nH]c3=O)nc12 [BMS536924] (first compound 0.4 µM, partner dose 0.2 µM) | 144% | 83.2% | 97.5% | 117% | 137% | 191% | 79.3% | 92.1% | 86% | 78.7% | 85.2% | 470% | 98.4% | 118% | 50.1% | 100% | 191% | 94.3% | 130%
14 | CC(C)C[C@H](NC(=O)[C@H](Cc1ccccc1)NC(=O)c1cnccn1)B(O)O [Bortezomib] + C=CCn1c(=O)c2cnc(Nc3ccc(N4CCN(C)CC4)cc3)nc2n1-c1cccc(C(C)(C)O)n1 [MK1775] (first compound 0.001 µM, partner dose 0.02 µM) | 242% | 814% | 72.2% | 150% | 167% | 352% | 83.7% | 139% | 303% | 361% | 68.2% | 116% | 114% | 1910% | 106% | 35.9% | 284% | 114% | 139%
15 | CN1CCN(c2ccc3nc(-c4c(N)c5c(F)cccc5[nH]c4=O)[nH]c3c2)CC1 [Dovitinib] + CO[C@@H]1[C@H](N(C)C(=O)c2ccccc2)C[C@H]2O[C@]1(C)n1c3ccccc3c3c4c(c5c6ccccc6n2c5c31)C(=O)NC4 [Midostaurin] (first compound 0.1 µM, partner dose 0.08 µM) | 88.6% | 99.8% | 141% | 112% | 100% | 163% | 169% | 90.1% | 181% | 106% | 153% | 192% | 77.6% | 87% | 90.5% | 65.8% | 97.5% | 77.7% | 71.1%
16 | Cn1c(=O)n(-c2ccc(C(C)(C)C#N)cc2)c2c3cc(-c4cnc5ccccc5c4)ccc3ncc21 + O=C(O)c1ccc(-c2c[nH]c3ncc(-c4ccccc4)cc23)cc1C1CCCC1 [GSK650394] (first compound 0.004 µM, partner dose 0.16 µM) | 200% | 98.3% | 202% | 119% | 82.6% | 132% | 75.2% | 98.6% | 154% | 110% | 84.9% | 194% | 200% | 97.9% | 47.5% | 90.9% | 44.1% | 44% | 146%

A stretch taken from the entries so far, as a working copy:
Row | SMILES | cleaved PARP positive nuclei fraction (501Mel) | cleaved PARP positive nuclei fraction (A101D) | cleaved PARP positive nuclei fraction (A2058) | cleaved PARP positive nuclei fraction (A375) | cleaved PARP positive nuclei fraction (C32) | cleaved PARP positive nuclei fraction (CBRC008) | cleaved PARP positive nuclei fraction (CBRC013) | cleaved PARP positive nuclei fraction (CBRC014) | cleaved PARP positive nuclei fraction (CBRC016) | cleaved PARP positive nuclei fraction (CBRC017) | cleaved PARP positive nuclei fraction (COLO792) | cleaved PARP positive nuclei fraction (COLO800) | cleaved PARP positive nuclei fraction (COLO829) | cleaved PARP positive nuclei fraction (G361) | cleaved PARP positive nuclei fraction (IPC-298) | cleaved PARP positive nuclei fraction (IST-MEL1) | cleaved PARP positive nuclei fraction (LB2518-MEL) | cleaved PARP positive nuclei fraction (LOXIMVI) | cleaved PARP positive nuclei fraction (MEL-HO)
11 | O=C(O)[C@@H]1[O][Sb](=[O])([O][Sb]2(=[O])[O][C@H]([C@H](O)CO)[C@H](O)[C@H](C(=O)O)[O]2)[O][C@H]([C@H](O)CO)[C@@H]1O (some centres undefined) [stibogluconate] + COc1cc(Nc2ncc(F)c(Nc3ccc4c(n3)NC(=O)C(C)(C)O4)n2)cc(OC)c1OC [Tamatinib] (first compound 2 µM, partner dose 0.4 µM) | 127% | 237% | 153% | 145% | 154% | 150% | 157% | 71.9% | 47.9% | 98.8% | 100% | 80% | 160% | 86.9% | 108% | 58.7% | 132% | 197% | 274%
12 | CNC(=O)c1cc(Oc2ccc(NC(=O)Nc3ccc(Cl)c(C(F)(F)F)c3)cc2)ccn1 [sorafenib] + CC(C)(C)c1cnc(CSc2cnc(NC(=O)C3CCNCC3)s2)o1 [SNS-032] (first compound 0.4 µM, partner dose 0.01 µM) | 90.4% | 80.9% | 115% | 35.3% | 239% | 149% | 132% | 212% | 58.8% | 98% | 40.2% | 18.5% | 37% | 63.6% | 173% | 212% | 43.5% | 62.4% | 35.5%
